Results are given in words; binding and its absence hold for the method and conditions named. Binding seen in cells or lysates may run through a third protein. Some entries that bind do so weakly or less than the wild type.

Sequences of proteins named here, by UniProt entry; tags and fusion partners are left off.
UniProt Q01094: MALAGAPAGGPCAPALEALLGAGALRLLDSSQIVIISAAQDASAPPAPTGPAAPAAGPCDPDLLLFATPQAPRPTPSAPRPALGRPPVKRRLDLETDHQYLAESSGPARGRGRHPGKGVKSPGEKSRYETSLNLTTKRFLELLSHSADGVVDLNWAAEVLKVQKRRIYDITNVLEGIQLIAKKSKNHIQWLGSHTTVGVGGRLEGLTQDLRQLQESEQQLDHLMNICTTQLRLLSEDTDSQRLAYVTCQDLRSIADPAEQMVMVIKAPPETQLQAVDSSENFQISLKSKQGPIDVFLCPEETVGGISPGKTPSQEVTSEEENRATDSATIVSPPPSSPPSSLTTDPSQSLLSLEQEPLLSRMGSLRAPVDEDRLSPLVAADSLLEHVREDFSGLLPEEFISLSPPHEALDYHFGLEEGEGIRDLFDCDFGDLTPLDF
UniProt O15047: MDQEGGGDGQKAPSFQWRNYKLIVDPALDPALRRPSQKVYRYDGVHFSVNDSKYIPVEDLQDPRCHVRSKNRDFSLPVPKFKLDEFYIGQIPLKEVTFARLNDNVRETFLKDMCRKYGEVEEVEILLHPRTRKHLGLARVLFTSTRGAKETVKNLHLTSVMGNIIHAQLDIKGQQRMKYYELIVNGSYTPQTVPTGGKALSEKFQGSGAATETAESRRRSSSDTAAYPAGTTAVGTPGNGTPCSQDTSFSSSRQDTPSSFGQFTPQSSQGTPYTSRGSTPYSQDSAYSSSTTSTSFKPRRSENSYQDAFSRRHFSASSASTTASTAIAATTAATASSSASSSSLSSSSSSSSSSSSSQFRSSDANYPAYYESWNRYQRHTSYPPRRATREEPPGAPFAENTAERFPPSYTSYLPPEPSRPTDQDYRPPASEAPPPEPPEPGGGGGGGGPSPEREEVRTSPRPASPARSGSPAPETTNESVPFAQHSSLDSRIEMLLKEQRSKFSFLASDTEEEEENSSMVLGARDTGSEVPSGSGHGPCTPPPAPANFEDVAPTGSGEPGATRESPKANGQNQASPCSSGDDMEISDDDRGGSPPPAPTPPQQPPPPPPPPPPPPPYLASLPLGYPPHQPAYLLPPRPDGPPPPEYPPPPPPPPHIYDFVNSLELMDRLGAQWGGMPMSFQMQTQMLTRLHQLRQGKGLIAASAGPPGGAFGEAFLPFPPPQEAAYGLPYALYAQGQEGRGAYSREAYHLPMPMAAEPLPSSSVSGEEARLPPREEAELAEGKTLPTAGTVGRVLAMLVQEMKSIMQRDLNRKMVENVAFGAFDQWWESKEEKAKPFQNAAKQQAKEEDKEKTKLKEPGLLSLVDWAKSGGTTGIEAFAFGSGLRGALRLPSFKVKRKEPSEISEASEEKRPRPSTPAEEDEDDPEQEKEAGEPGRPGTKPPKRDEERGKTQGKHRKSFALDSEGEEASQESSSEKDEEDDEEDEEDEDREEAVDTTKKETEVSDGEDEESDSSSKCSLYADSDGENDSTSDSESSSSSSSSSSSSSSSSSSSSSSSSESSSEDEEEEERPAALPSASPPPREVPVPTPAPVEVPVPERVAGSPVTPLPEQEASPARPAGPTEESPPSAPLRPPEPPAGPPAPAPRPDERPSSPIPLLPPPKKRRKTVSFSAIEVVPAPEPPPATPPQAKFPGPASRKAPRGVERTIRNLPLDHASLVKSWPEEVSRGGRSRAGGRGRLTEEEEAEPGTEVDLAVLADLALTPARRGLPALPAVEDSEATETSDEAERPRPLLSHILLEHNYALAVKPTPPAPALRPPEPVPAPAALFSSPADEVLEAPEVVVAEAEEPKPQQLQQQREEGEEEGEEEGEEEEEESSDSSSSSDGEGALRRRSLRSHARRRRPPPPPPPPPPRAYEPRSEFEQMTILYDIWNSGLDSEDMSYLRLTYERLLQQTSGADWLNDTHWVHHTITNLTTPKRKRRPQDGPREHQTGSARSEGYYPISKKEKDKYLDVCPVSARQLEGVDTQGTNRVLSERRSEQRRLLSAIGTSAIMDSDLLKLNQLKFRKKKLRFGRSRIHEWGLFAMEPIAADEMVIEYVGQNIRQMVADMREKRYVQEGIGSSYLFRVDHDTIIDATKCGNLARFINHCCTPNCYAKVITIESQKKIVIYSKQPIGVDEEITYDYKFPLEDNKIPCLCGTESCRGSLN

Assay [1] deals with endogenous E2F1 (human (endogenous in LNCaP)) (UniProt Q01094). As to the kind of experiment: co-IP; endogenous proteins in LNCaP cells; immunoprecipitation with E2F1 antibody, immunoblot for SETD1A. Background: Immunoblotting shows a protein as a band on a membrane.
Assay [2] addresses HA (hemagglutinin)-tagged E2F1 (UniProt Q01094). In words: co-IP; HA-E2F1 and flag-SETD1A co-expressed in C4-2B cells; RIPA extract; co-immunoprecipitated SETD1A detected with anti-flag antibody.
For assay [3] the target is unchanged. As to the kind of experiment: co-IP; HA-E2F1 and flag-SETD1A co-expressed in LNCaP cells, 72 h; RIPA extract; immunoprecipitation with anti-HA antibody, immunoblot for SETD1A.

For “endogenous SETD1A (from UniProt O15047 1-1707)”, the binding result in assay [1] is recorded as “binds”.

With “flag-tagged SETD1A (from UniProt O15047 1-1707)”, the binding entry in assay [2] and in assay [3] was “binds” in each case.

The values above are taken from PMC7407996.
